# Reference: patent US20240270811A1, “Glycosylated Neuropeptide Derivative, Pharmaceutical Composition, Intranasal/Nasal Drop Formulation, and Use of Pharmaceutical Composition” (Tokyo University of Science Foundation, priority 2021, published 2024)
# At least one compound was matched to its structure with a doubt left. Where no end group is shown, it is not given here. The star is where a group is joined. X1 = CC(=O)N[C@@H]1[C@@H](O)[C@H](O[C@@H]2O[C@H](CO)[C@@H](O[C@@H]3O[C@H](CO[C@H]4O[C@H](CO)[C@@H](O)[C@H](O)[C@@H]4O[C@@H]4O[C@H](CO)[C@@H](O[C@@H]5O[C@H](CO[C@]6(C(=O)O)C[C@H](O)[C@@H](NC(C)=O)[C@H]([C@H](O)[C@H](O)CO)O6)[C@H](O)[C@H](O)[C@H]5O)[C@H](O)[C@H]4NC(C)=O)[C@@H](O)[C@H](O[C@H]4O[C@H](CO)[C@@H](O)[C@H](O)[C@@H]4O[C@@H]4O[C@H](CO)[C@@H](O[C@@H]5O[C@H](CO[C@]6(C(=O)O)C[C@H](O)[C@@H](NC(C)=O)[C@H]([C@H](O)[C@H](O)CO)O6)[C@H](O)[C@H](O)[C@H]5O)[C@H](O)[C@H]4NC(C)=O)[C@@H]3O)[C@H](O)[C@H]2NC(C)=O)[C@@H](CO)O[C@H]1NC(=O)C*
# Columns and labels:
# [1] = system: 7-week-old male ddY mouse; assay: Forced swim test (FST) after intranasal administration; assay type: in vivo
# Experimental: Administration solutions were prepared by completely dissolving PAS-CPP-GLP-2 derivative (no sugar) or PAS-CPP-GLP-2 derivatives (11-sugar, 5-sugar) in DMSO and adding PBS such that the final concentration of DMSO was 16% by mass. The concentration of each GLP-2 derivative was adjusted to 0.6 nmol/4 μL.
# After anesthetizing mice with isoflurane using an all-in-one small animal anesthetizer (MK-AT210D, Muromachi Kikai Co., Ltd., hereinafter the same), the solution was intranasally administered to the mice. Specifically, the intranasal administration was performed by contacting a tip of the anesthetizer to a nasal cavity in a horizontal manner such that the solution was inhaled by spontaneous respiration, by the amount of 2 μL per nose cavity, 4 μL in total (0.6 nmol/mouse). To the control group (Vehicle), a PBS solution containing DMSO by 16% by mass was intranasally administered by the amount of 4 μL.
# The intranasal administration was performed 20 minutes before a test session of a forced swim test (FST) as set forth below.
# A 7-week-old male ddY mouse is placed in a transparent plastic cylinder with a diameter of 18 cm and a height of 50 cm containing water at a temperature of 25° C.±1° C. to a height of 7 cm, and is allowed to swim for 15 minutes. Thereafter, the mouse is taken out from the cylinder and dried off with a towel, and returned to a cage. The procedure as mentioned above is referred to as a training session. After 24 hours of the completion of the training session, a 15-minute test session is performed in the same manner to the training session. The behavior of the mouse is recorded over the test session with a video camera. When the mouse is placed in the cylinder, it struggles to try to escape. When the mouse realizes that it cannot escape, the mouse gradually ceases to move giving up the escape. This situation is referred to as a state of immobility in which the mouse is in a depression-like state. The time during which the mouse is in a state of immobility (immobility time) is measured in the first 6 minutes from the start of the test session. The existence or non-existence of anti-depressant-like effects is determined by the length of the immobility time.
# Administration solutions were prepared by mixing a PAS-CPP-GLP-2 derivative (no sugar) or a PAS-CPP-GLP-2 derivative (11-sugar) with PBS. […] The concentration of each GLP-2 derivative was adjusted to 0.6 nmol/4 μL.
# After anesthetizing mice with isoflurane using an all-in-one small animal anesthetizer (MK-AT210D, Muromachi Kikai Co., Ltd., hereinafter the same), the solution was intranasally administered to the mice by the amount of 2 μL per nose cavity, 4 μL in total (0.6 nmol/mouse). To the control group (Vehicle), an equivalent amount of DMSO by 16% by mass was intranasally administered. […]
# Neuro 2A cells = assay: Cellular uptake into Neuro 2A cells with/without macropinocytosis inhibitor EIPA (FACS); assay type: cell-based; conditions: FITC-labelled derivative 0.045 μg/μL, EIPA 100 μM, 30 minutes exposure
substance,measurement,setting,value
FFLIPKGRRRRRRRRGGHADGSFSDEMNTILDNLAARDFINWLIQTKITDC(X1)-OH [PAS-CPP-GLP-2 (11-sugar)],immobility time / anti-depressant-like effect vs control group,"[1]; 16% DMSO in PBS, 0.6 nmol/mouse intranasal, 20 minutes before test session",significantly shortened
same,anti-depressant-like effect vs control group,"[1]; 16% DMSO, 0.3 nmol/mouse intranasal, test 20 minutes after administration",expressed anti-depressant-like effects
same,immobility time / anti-depressant-like effect vs control group,"[1]; 16% DMSO, 0.6 nmol/4 μL intranasal, test 60 minutes after administration",a significant difference
same,anti-depressant-like effect vs control group,"[1]; PBS as medium, 0.6 nmol/mouse intranasal, 20 minutes before test session",exhibited a significant anti-depressant-like effect
same,amount taken into Neuro 2A cells under the existence of EIPA,Neuro 2A cells,significantly decreased
